{"source": "patent EP4825863A1", "about": "“DESIGN, PREPARATION AND APPLICATION OF TARGETED ACTIVATION ENRICHMENT TYPE NEAR-INFRARED PROBE AND PHOTOSENSITIZER” (dated 2026)", "key": {"HeLa tumor [1]": {"test_system": "HeLa tumor", "assay": "Real-time in vivo fluorescence imaging of HeLa tumor-bearing mice (ALPIN-6I)", "procedure": "Experimental conditions: Tumor-bearing mice were first divided into three groups with three mice per group. Whole-body background fluorescence images were acquired from six nude mice using an IVIS Lumina XRMS Series III in vivo imaging system (λex = 660 nm, λem = 710 nm). The photosensitizer ALPIN-6I or ALPIN-4I was then prepared as a 40 µM solution in PBS. Each tumor-bearing mouse received 200 µL of the prepared probe solution via tail vein injection using an insulin syringe. Subsequently, whole-body fluorescence data from the experimental mice were collected using the in vivo imaging system at multiple time points (1 h, 2 h, 3 h, 4 h, 6 h, 8 h, and 24 h). For the inhibitor group, 50 µL of 10 mM Na3VO4 solution was first injected intratumorally, and 30 minutes later, ALPIN-6I was administered at the same concentration, followed by imaging at the same time points."}, "HeLa cells [2]": {"test_system": "HeLa cells", "assay": "Photodynamic killing of tumor cells (live/dead staining)", "procedure": "Experimental conditions: HeLa cells or HEK293 cells were incubated with the photosensitizer ALPIN-6I or ALPIN-4I (4 µM) at 37°C for 1 hour. The incubation medium was then removed, and fresh medium containing FBS was added. Subsequently, the cells were irradiated with a 660 nm light source at 36 mW for 10 minutes, followed by incubation at 37°C for 24 hours. Staining was performed using a live/dead cell staining kit (Beyotime), and fluorescence imaging was performed using a fluorescence microscope."}, "HeLa cells [3]": {"test_system": "HeLa cells", "assay": "ROS production in HeLa cells (H2DCFDA)", "procedure": "(§1) Experimental conditions: HeLa cells or HEK293 cells were incubated with the photosensitizer ALPIN-6I (0, 1, 2, 4 µM) or ALPIN-4I (4 µM) and the ROS probe H2DCFDA (10 µM) at 37°C for 30 minutes. After washing twice with PBS, the cells were irradiated with a 660 nm light source at 36 mW for 2 minutes, and fluorescence imaging was performed using a fluorescence microscope."}, "[4]": {"test_system": "mixed population of HeLa cells and HEK293 cells", "assay": "Selective killing in mixed HeLa and HEK293 cell population (PI staining)", "conditions": "4 µM, 30 minutes; 660 nm, 36 mW, 10 minutes", "procedure": "Experimental conditions: A mixed population of HeLa cells and HEK293 cells (stably expressing yellow fluorescent protein) was incubated with the photosensitizer ALPIN-6I (4 µM) at 37°C for 30 minutes. The incubation medium was then removed, and fresh medium containing FBS was added. Subsequently, the cells were irradiated with a 660 nm light source at 36 mW for 10 minutes, followed by incubation at 37°C for 24 hours. PI staining was performed to identify dead cells using a live/dead cell staining kit (Beyotime), and fluorescence imaging was performed using a fluorescence microscope."}, "HeLa tumor [5]": {"test_system": "HeLa tumor", "assay": "Photodynamic therapy of HeLa tumor-bearing mice", "conditions": "for Tumor volume: 1.1 mg/kg tail vein, 660 nm 0.5 W 10 minutes", "procedure": "Experimental conditions: Tumor-bearing mice were first divided into three groups with four mice per group. The photosensitizer was administered via tail vein injection at 1.1 mg/kg. After 1 hour, the mice were irradiated with a 660 nm light source at 0.5 W for 10 minutes, and a second irradiation was performed 24 hours later. After 48 hours, the photosensitizer was re-injected, followed by light irradiation 1 hour later, and a second irradiation was performed 72 hours later. Subsequently, the tumor-bearing mice were allowed to recover spontaneously for 15 days."}, "HeLa cells [6]": {"test_system": "HeLa cells", "assay": "Quantification of photosensitizer enrichment in HeLa cells", "procedure": "Experimental conditions: 1.5 mL of the photosensitizer ALPIN-6I (4 µM) was incubated with HeLa cells (1 × 10^5 cells) overexpressing ALP on the cell surface at 37°C for 1 hour. After incubation, the incubation medium was collected. The cells were washed twice with phenol red-free DMEM, and the wash buffer was collected. Subsequently, 200 µL of RIPA lysis buffer was added to fully lyse the cells, and the lysate was collected. ALP and BSA were added to the collected incubation medium and wash buffer to ensure complete activation of residual probes. Fluorescence intensity was measured using a fluorometer, with three parallel replicates. Probe concentration was calculated based on the standard calibration curve. Photosensitizer concentration in the cell lysate was determined using the same method. The concentration within the cells was then calculated based on the cell volume (2.6 × 10^3 µm^3 = 2.6 × 10^-12 L per cell)."}, "HEK293 cells": {"test_system": "HEK293 cells", "assay": "ROS production in HEK293 cells (H2DCFDA, negative control cells)", "conditions": "660 nm light", "procedure": "as §1"}, "[7]": {"test_system": "HeLa cells overexpressing alkaline phosphatase (ALP)", "assay": "Confocal fluorescence imaging of HeLa cells with ALPIN-7 and ALPIN-8", "conditions": "5 µM", "procedure": "Experimental conditions: 5 µM of the fluorescent probes ALPIN-7 and ALPIN-8 (structure shown in FIG. 22) were incubated separately with HeLa cells overexpressing ALP on the cell surface and normal HEK293 cells with low ALP expression in a culture dish at 37°C for 30 minutes. Alternatively, HeLa cells were pre-treated with the alkaline phosphatase inhibitor Na3VO4 for 1 hour, followed by incubation with the probes for 30 minutes. After incubation, the probe-containing culture medium was discarded, and the cells were washed once with PBS (pH = 7.4). Subsequently, 1 mL of phenol red-free DMEM was added, and fluorescence imaging was performed using a confocal fluorescence microscope (Cy 5.5 channel)."}, "HeLa cells [8]": {"test_system": "HeLa cells", "assay": "Real-time confocal imaging of HeLa cells with ALPIN-7", "conditions": "1 µM", "procedure": "Experimental conditions: Cultured HeLa cells were seeded in a confocal dish, and 1 µM of the fluorescent probe ALPIN-7 was added to the HeLa cells. Time-dependent fluorescence imaging was performed using a confocal fluorescence microscope (Cy 5.5 channel)."}}, "note": "The structures given here were assigned with low confidence; some may be wrong."}
{"compound": "CCC[N+]1=C(/C=C/C2=C3Oc4cc(OCc5ccc(OP(=O)(O)O)cc5)c(COC(=O)NCc5cn(CC[N+](C)(C)CCCS(=O)(=O)O)nn5)cc4C=C3CCC2)C(C)(C)c2cc(I)ccc21", "values": [{"measurement": "fluorescence at the tumor site at 1 hour post-injection", "setting": "HeLa tumor [1]; 200 µL of 40 µM in PBS, tail vein", "result": "strong fluorescence signals at the tumor site"}, {"measurement": "time up to which significant tumor-associated fluorescence remained detectable", "setting": "HeLa tumor [1]; intravenous administration", "result": "up to 24 hours"}, {"measurement": "live/dead cell staining after light irradiation", "setting": "HeLa cells [2]; 4 µM, 1 hour, 660 nm, 36 mW, 10 minutes, 24 hours, PI red = dead, AM green = live", "result": "PI staining"}, {"measurement": "conditions required for activation to kill tumors", "setting": "HeLa cells [2]; HeLa vs HEK293, with vs without light", "result": "Only in the presence of both ALP and light irradiation"}, {"measurement": "green fluorescence of DCF (ROS generation)", "setting": "HeLa cells [3]; ALPIN-6I 0, 1, 2, 4 µM or ALPIN-4I 4 µM, H2DCFDA 10 µM, 660 nm, 36 mW, 2 minutes", "result": "increased with increasing concentration of ALPIN-6I"}, {"measurement": "green fluorescence of DCF (ROS generation) without light", "setting": "HeLa cells [3]; absence of light irradiation", "result": "no green fluorescence was observed in the absence of light irradiation"}, {"measurement": "selective killing in mixed cell population", "setting": "[4]", "result": "can selectively kill ALP-overexpressing HeLa cells without affecting normal cells"}, {"measurement": "Tumor volume", "setting": "HeLa tumor [5]; Day 12", "result": "122.30 ± 17.56", "unit": "mm^3"}, {"measurement": "Tumor volume", "setting": "HeLa tumor [5]; Day 14", "result": "39.73 ± 18.93", "unit": "mm^3"}, {"measurement": "Tumor volume", "setting": "HeLa tumor [5]; Day 16", "result": "7.70 ± 7.01", "unit": "mm^3"}, {"measurement": "Tumor volume", "setting": "HeLa tumor [5]; Day 18", "result": 0.00, "unit": "mm^3"}, {"measurement": "Tumor volume", "setting": "HeLa tumor [5]; Day 20", "result": 0.00, "unit": "mm^3"}, {"measurement": "tumors of the tumor-bearing mice after 4 days of treatment", "setting": "HeLa tumor [5]; after 4 days of treatment", "result": "completely disappeared"}, {"measurement": "tumor recurrence", "setting": "HeLa tumor [5]; after 18 days of treatment", "result": "no recurrence observed"}, {"measurement": "fluorescence of cell pellet after incubation and centrifugation", "setting": "HeLa cells [6]", "result": "distinct blue fluorescence"}, {"measurement": "photosensitizer concentration in HeLa cells", "setting": "HeLa cells [6]; 4 µM, 1 × 10^5 cells, 37°C, 1 hour, calculated from cell volume", "result": 2.4, "unit": "mM"}, {"measurement": "fluorescence intensity within the cells relative to incubation medium", "setting": "HeLa cells [6]; 4 µM, 37°C, 1 hour", "result": "more than 2000 fold"}, {"measurement": "total concentration in the incubation medium and wash buffer", "setting": "HeLa cells [6]; 4 µM, 37°C, 1 hour", "result": 0.00087, "unit": "mM"}, {"measurement": "activation / ROS generation in negative cells", "setting": "HEK293 cells", "result": "cannot be activated in negative cells"}]}
{"compound": "CCC[N+]1=C(/C=C/C2=C3Sc4cc(OCc5ccc(OP(=O)(O)O)cc5)c(COC(=O)NCc5cn(CC[N+](C)(C)CCCS(=O)(=O)O)nn5)cc4C=C3CCC2)C(C)(C)c2ccccc21", "values": [{"measurement": "fluorescence imaging of cells", "setting": "[7]; 37°C, 30 minutes, compared with control probe ALPIN-8", "result": "more pronounced fluorescence imaging of ALP-overexpressing cells"}, {"measurement": "fluorescence labeling of HeLa cells in the ALP inhibitor group", "setting": "[7]; HeLa cells pre-treated with Na3VO4 for 1 hour", "result": "reduced"}, {"measurement": "time-dependent intracellular fluorescence", "setting": "HeLa cells [8]", "result": "intracellular fluorescence intensity continuously increased over time"}]}
